Results from cells or extracts need not show a direct contact. A negative result means that nothing was seen under these conditions.

By UniProt entry, the sequences of proteins in these tests, tags left out. Residues count along the entry.
UniProt P16422, 24-314: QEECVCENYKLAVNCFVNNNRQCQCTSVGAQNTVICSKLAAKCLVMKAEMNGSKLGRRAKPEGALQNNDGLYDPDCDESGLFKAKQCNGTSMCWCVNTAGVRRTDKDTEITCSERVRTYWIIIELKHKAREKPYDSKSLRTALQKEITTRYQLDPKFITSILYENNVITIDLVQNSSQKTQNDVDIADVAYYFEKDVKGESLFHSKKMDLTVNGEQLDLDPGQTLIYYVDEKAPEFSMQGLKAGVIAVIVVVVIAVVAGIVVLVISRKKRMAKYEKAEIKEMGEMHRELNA
UniProt P16070, 21-742: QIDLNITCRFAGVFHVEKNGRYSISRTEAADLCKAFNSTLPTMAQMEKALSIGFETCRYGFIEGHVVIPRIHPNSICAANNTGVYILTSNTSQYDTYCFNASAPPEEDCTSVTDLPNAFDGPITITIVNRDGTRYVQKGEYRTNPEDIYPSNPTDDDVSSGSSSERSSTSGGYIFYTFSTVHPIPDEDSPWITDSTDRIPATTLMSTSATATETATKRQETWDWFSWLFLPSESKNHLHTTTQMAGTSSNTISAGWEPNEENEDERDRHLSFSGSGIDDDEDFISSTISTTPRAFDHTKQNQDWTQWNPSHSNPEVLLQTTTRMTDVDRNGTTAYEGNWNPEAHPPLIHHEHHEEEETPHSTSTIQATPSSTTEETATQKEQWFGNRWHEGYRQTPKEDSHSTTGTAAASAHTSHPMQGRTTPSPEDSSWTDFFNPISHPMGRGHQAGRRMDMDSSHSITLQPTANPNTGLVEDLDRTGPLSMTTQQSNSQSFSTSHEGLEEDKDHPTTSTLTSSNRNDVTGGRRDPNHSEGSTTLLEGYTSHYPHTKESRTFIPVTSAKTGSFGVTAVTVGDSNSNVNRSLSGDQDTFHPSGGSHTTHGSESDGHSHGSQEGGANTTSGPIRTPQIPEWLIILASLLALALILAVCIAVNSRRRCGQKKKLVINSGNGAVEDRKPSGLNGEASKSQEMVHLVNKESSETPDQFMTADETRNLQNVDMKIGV

Data set [1] concerns the target EpCAM (on OVCAR8 ovarian cancer cells) (Homo sapiens) (UniProt P16422). The data set can be described thus: flow cytometry. Conditions: protein on the cell surface. A general note: Flow cytometry measures light scatter and fluorescence of single cells or particles in a stream.
In data set [2] the target is CD44 (on OVCAR8 ovarian cancer cells) (Homo sapiens) (UniProt P16070). In words: flow cytometry. Conditions: protein on the cell surface.
Setting [3] is: 2'-F, 1 uM Cy5-MG used as negative control on OVCAR8 cells, label: 3'-Cy5.

With “GGAUCCCGACUGGCGAGAGCCAGGUAACGAAUGGAUCC [MG aptamer (malachite green control)]”, the binding result in data set [1] (setting [3]) and in data set [2] (setting [3]) was “no binding” throughout.

Regarding “GGGAUGGAUCCAAGCUUACUGGCAUCUGGAUUUGCGCGUGCCAGAAUAAAGAGUAUAACGUGUGAAUGGGAAGCUUCGAUAGGAAUUCGGAAAAGCUUGUUCAGGAGAUGAAAUU / GCGACUGGUUACCCGGUCGUAAAAUUUCAUCUCCUGAACAAGCUU [Cy5-CD44-EpCAM aptamer]”, the binding result in data set [1] (2'-F pyrimidines throughout, 1 uM aptamer, TBS, 5% BSA, tRNA, sperm DNA, 37 C, binding reduced on EpCAM siRNA knockdown and nearly lost on double knockdown, label: 3'-Cy5 on EpCAM strand, variant of bispecific CD44-EpCAM aptamer) is reported as “binds”; in data set [2] (2'-F pyrimidines throughout, 1 uM aptamer, TBS, 5% BSA, tRNA, sperm DNA, 37 C, binding reduced on CD44 siRNA knockdown and nearly lost on CD44 plus EpCAM double knockdown, label: 3'-Cy5 on EpCAM strand, variant of bispecific CD44-EpCAM aptamer), “binds”.

For the origin of these results see patent US20240218377.
